Experimental data: PubChem BioAssay AID602196 (INSERM, 2012)
Screen: 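Knock-downs that protect lung cancer cells from cisplatin or sensitise them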. Cells: human A549 lung cancer cells. Knock-down reagent: siRNA pair against human genes. Duration: 48 h transfection before cisplatin; time from cisplatin to read-out not stated. Treatment: cisplatin at a dose killing half of control-siRNA cells; exact dose and duration not given. Read-out: 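Cisplatin cell death as a shift from the 50% death seen with control siRNA; siRNAs toxic or growth-blocking alone scored 0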. Scale: two-siRNA summed score (-2 to +2): higher = both siRNAs protect from cisplatin killing; -2 means both sensitise; mean protection from cisplatin (shift in death) and protection from cisplatin (shift in death), siRNA C and protection from cisplatin (shift in death), siRNA D: higher = protection from cisplatin killing. Call rule: 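siRNAs harmful alone (LDH or WST-1) get 0; others get +1 for less and -1 for more cisplatin killing; genes are active when the two siRNAs give the same sign, summing to ±2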. Meaning of the calls: active = both siRNAs shift cisplatin killing the same way; inactive = no consistent shift, or siRNA harmful alone.
The deposit covers about 23,000 reagents; below is a random part of them. Over the whole deposit, 455 (2%) were called active. 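Active includes both protection and sensitisation; some change values fall well beyond the stated -50 to +50 range.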 A number with no mark means an inactive call. The record does not give: the amount of reagent.

gene knocked down,two-siRNA summed score (-2 to +2),mean protection from cisplatin (shift in death) (%),"protection from cisplatin (shift in death), siRNA C (%)","protection from cisplatin (shift in death), siRNA D (%)"
LOC402506,0,13.6,18,9.3
DAPK3,0,16.1,30.5,1.6
LOC392343,1,8.3,18.6,-2
TLN1,0,-0.4,-9.4,8.7
DPPA2,-1,-13.3,-21,-5.6
LOC389372,0,8.3,12.6,3.9
HAPSTR2,0,5.5,9.8,1.1
ZBTB40,1,15.4,13,17.8

Laid out differently: entries from further up.
TLN1
- two-siRNA summed score (-2 to +2): 0
- mean protection from cisplatin (shift in death) (%): -0.4
- protection from cisplatin (shift in death), siRNA C (%): -9.4
- protection from cisplatin (shift in death), siRNA D (%): 8.7

DPPA2
- two-siRNA summed score (-2 to +2): -1
- mean protection from cisplatin (shift in death) (%): -13.3
- protection from cisplatin (shift in death), siRNA C (%): -21
- protection from cisplatin (shift in death), siRNA D (%): -5.6

LOC389372
- two-siRNA summed score (-2 to +2): 0
- mean protection from cisplatin (shift in death) (%): 8.3
- protection from cisplatin (shift in death), siRNA C (%): 12.6
- protection from cisplatin (shift in death), siRNA D (%): 3.9

More results follow:
gene knocked down,two-siRNA summed score (-2 to +2),mean protection from cisplatin (shift in death) (%),"protection from cisplatin (shift in death), siRNA C (%)","protection from cisplatin (shift in death), siRNA D (%)"
C9orf78,0,-0.4,-4.6,3.9
IFI16,-1,3.4,24.2,-17.4
CSGALNACT2P1,0,3.5,1,6.1
ESYT3,0,4.1,6.6,1.5
LOC388015,1,6,18.6,-6.6
RTN3,0,12.4,11.1,13.7
RPLP0,0,3.9,9.6,-1.9
LOC389070,0,8.2,15.1,1.4
NCOR1,-1,-19.1,-11.9,-26.3
PRELID2,0,9.4,10.2,8.7
CSTPP1,0,6.3,8.2,4.3
SRC,0,-3.7,-2,-5.4
MAGEA12,1,15.3,3,27.7
ANXA2,-1,-18.6,-15.8,-21.4
GALNT13,0,2.2,0.7,3.7
